Measurements as given in the supplement of paper PMC11409438.
This is one part of the list. Many values rest on one well or one pass, so single values are uncertain.

Assays:
[1] = system: Caenorhabditis elegans ST65 (ncIs13[ajm-1::GFP]); test: 'Larvae/adult' ratio (MetaXpress pharynx counts; minimum value 1, so it appears to include adults; growth inhibition read-out); conditions: 10 µM; exposure time: 4-5 days from L1 at 20°C
[2] = system: Caenorhabditis elegans ST65 (ncIs13[ajm-1::GFP]); test: vulvae per adult worm (MAPK/ERK-dependent vulval induction, MetaXpress) (vulvae/adult); higher = more vulval induction (less MAPK/ERK inhibition); conditions: 10 µM; exposure time: 4-5 days from L1 at 20°C

Compound | 'Larvae/adult' ratio [1] | vulvae per adult worm [2]
O=C(O)CNC(=O)c1c(O)c2ccccc2n(Cc2ccccc2)c1=O | 1.71 | 1.14
C=C1C[C@@H]2[C@H](CC[C@]3(C)C(=O)CC[C@@H]23)[C@@]2(C)C=CC(=O)C=C12 [Exemestane] | 2.68 | 1.19
CCC1(c2ccc(N)cc2)CCC(=O)NC1=O (centres undefined) [Aminoglutethimide] | 3.75 | 1.75
CCNC(=O)C[C@@H]1N=C(c2ccc(Cl)cc2)c2cc(OC)ccc2-n2c(C)nnc21 | 1.79 | 0
Cc1sc2c(c1C)C(c1ccc(Cl)cc1)=N[C@@H](CC(=O)Nc1ccc(O)cc1)c1nnc(C)n1-2 | 2.71 | 0.417
COc1cc(C)[nH]c(=O)c1CNC(=O)c1c(C)n([C@H](C)C2CCOCC2)c2ccccc12 | 1.92 | 0.846
OCC(Br)(Br)Br [2,2,2-Tribromoethanol] | 1.59 | 1
Cn1cc(C2=C(c3cn(C4CCN(Cc5ccccn5)CC4)c4ccccc34)C(=O)NC2=O)c2ccccc21 | 1.54 | 0.692
CCc1c(C(=O)C(N)=O)c2c(OCC(=O)O)cccc2n1Cc1ccccc1 | 1.29 | 1
COCC1(CO)C(=O)C2CCN1CC2 (centres undefined) | 2.51 | 0.795
CC[C@@H](C(=O)[C@@H](C)[C@@H](O)[C@H](C)[C@@H]1O[C@@H]([C@@H](CC)C(=O)O)CC[C@@H]1C)[C@H]1O[C@]2(C=C[C@@H](O)[C@]3(CC[C@@](C)([C@H]4CC[C@](O)(CC)[C@H](C)O4)O3)O2)[C@H](C)C[C@@H]1C [Salinomycin (from Streptomyces albus)] | 2.14 | 0.857
CC(O)(CS(=O)(=O)c1ccc(F)cc1)C(=O)Nc1ccc(C#N)c(C(F)(F)F)c1 (centres undefined) [Bicalutamide] | 2.96 | 1.14

One compound at a time, as listed above:
Cn1cc(C2=C(c3cn(C4CCN(Cc5ccccn5)CC4)c4ccccc34)C(=O)NC2=O)c2ccccc21 in the list: 'Larvae/adult' ratio [1]: 1.54; vulvae per adult worm [2]: 0.692
CC[C@@H](C(=O)[C@@H](C)[C@@H](O)[C@H](C)[C@@H]1O[C@@H]([C@@H](CC)C(=O)O)CC[C@@H]1C)[C@H]1O[C@]2(C=C[C@@H](O)[C@]3(CC[C@@](C)([C@H]4CC[C@](O)(CC)[C@H](C)O4)O3)O2)[C@H](C)C[C@@H]1C [Salinomycin (from Streptomyces albus)] in the list: 'Larvae/adult' ratio [1]: 2.14; vulvae per adult worm [2]: 0.857
